{"source": "paper PMC6901946", "about": "“Intranasal MMI-0100 Attenuates Aβ1−42- and LPS-Induced Neuroinflammation and Memory Impairments via the MK2 Signaling Pathway” (Frontiers in Immunology, 2019)", "key": {"Kunming mice [1]": {"tested_on": "Kunming mice", "experiment": "Novel object recognition (NOR) task", "assay_type": "in vivo, mouse", "conditions": "mean ± SEM", "procedure": "(§1) MMI-0100 or vehicle was infused into the brain by using a 32-gauge stainless steel syringe needle placed in and projecting 0.5 mm below the tip of the cannula for 2 min. This needle was connected via a PE tube to a 5-μl Hamilton syringe mounted to a Microdrive pump (KD Scientific). To allow the drug to diffuse, the infusion syringe remained in place for 1 min. For the lateral ventricle, injection volume is 2 μl, and for the bilateral hippocampus CA1, injection volume is 0.5 μl/side. After drug administration, each mouse was subjected to behavioral testing immediately. In addition, the selection of the doses was based on the previous reports and our preliminary observations ([24]).\n(§2) The behavior experiments were carried out 15 min after i.c.v. injection of MMI-0100, or 2 h after intranasal infusion of MMI-0100. The cytokines were measured 15 min after i.c.v. injection of MMI-0100.\nThe procedures for the novel object recognition (NOR) and object location recognition (OLR) tasks were described in our previous report ([23], [30]). The videos for NOR and OLR tasks were shown in Supplementary Material. Briefly, the procedure of NOR and OLR tasks consisted of two sessions: the training phase and the test phase, and the time elapsed between the training and test phases is 24 h. Each mouse was tested in its home cage in a sound-attenuated room with dim lighting. Each mouse was handled for 3 min per day for three consecutive days prior to training. In our experiments, all objects were made of plastic or glass and were similar in sizes (4–5 cm high) but different in color and shape. There were several copies of each object used interchangeably. The objects were cleaned thoroughly between trials to avoid olfactory cues. Exploration was defined as sniffing or touching the object with the nose or forepaws. Resting against or moving around the object was not considered exploratory behavior. The discrimination index (DI) in the memory retention phase was calculated as the percentage of the time a mouse explored the new object or location over the total time the mouse explored the two objects or locations. […] We found no significant difference between treatments in the duration of exploration of the objects during the training phase, as well as in the duration and the total exploration time (TET) during the memory retention phase (Table 1).\nIn the training phase, two identical objects were placed on opposite sides of the home cage. The training trial was ended when the mouse had explored the two identical objects for 10 s within 5 min. […] In the test phase, a novel object, and a familiar object from the training trial were placed in the same positions as in the training phase, and the test phase lasted for 5 min. The test phase was ended when the mouse had explored the two objects for a total of 25 s, or after 5 min had passed, the test phase was terminated."}, "Kunming mice [2]": {"tested_on": "Kunming mice", "experiment": "Object location recognition (OLR) task", "assay_type": "in vivo, mouse", "conditions": "mean ± SEM", "procedure": "as §1, §2\nThe procedures for the novel object recognition (NOR) and object location recognition (OLR) tasks were described in our previous report ([23], [30]). The videos for NOR and OLR tasks were shown in Supplementary Material. […] The discrimination index (DI) in the memory retention phase was calculated as the percentage of the time a mouse explored the new object or location over the total time the mouse explored the two objects or locations. […]"}, "[3]": {"conditions": "Figure 2A, Aβ1−42 800 pmol i.c.v., MMI-0100 5 nmol i.c.v. or vehicle"}, "[4]": {"conditions": "Figure 2B, Aβ1−42 200 pmol iCA1, MMI-0100 1 nmol iCA1 or vehicle"}}, "data": [{"substance": "Aβ1−42: Aβ1−42 peptide purchased from Hangzhou Chinese Peptide Biochemical Company, oligomer used to induce AD model", "values": [{"measurement": "Duration of test phase", "setting": "Kunming mice [1]; [3]", "result": "300 ± 0 300 ± 0"}, {"measurement": "Duration of training phase", "setting": "Kunming mice [1]; [3]", "result": "184.5 ± 10.2"}, {"measurement": "TET in test phase", "setting": "Kunming mice [1]; [3]", "result": "17.2 ± 1.5"}, {"measurement": "Duration of test phase", "setting": "Kunming mice [1]; [4]", "result": "300 ± 0"}, {"measurement": "Duration of training phase", "setting": "Kunming mice [1]; [4]", "result": "195.1 ± 16.7"}, {"measurement": "TET in test phase", "setting": "Kunming mice [1]; [4]", "result": "20.6 ± 1.4"}, {"measurement": "TET in test phase", "setting": "Kunming mice [2]; Figure 3A, Aβ1−42 800 pmol i.c.v., MMI-0100 5 nmol i.c.v. or vehicle", "result": "16.9 ± 1.4"}, {"measurement": "TET in test phase", "setting": "Kunming mice [2]; Figure 3B, Aβ1−42 200 pmol iCA1, MMI-0100 1 nmol iCA1 or vehicle", "result": "15.2 ± 0.9"}]}]}
